We go through one molecule from doi:10.1101/2021.11.09.467869 (bioRxiv, 2021).

In the assay the target is RBA1 (residues 1-363) (Arabidopsis (accession Ag-0)) (UniProt F4HT77). In words: SEC + other: negative-staining EM.

These are yes or no findings as the source states them, for the method shown. Some results given as binding are weak or reduced against the parent protein; the word gives no strength.

B1: RBA1 (residues 1-363) (protein, UniProt F4HT77 1-363)
chain: MTSVSPRYRNVPVPKVFLSFRGEEIRHGFISHLADALERYGIMFIIDKDEQRGNDLTSLLLRIKESKVALVIFSSRFAESRFCMDEIVKMKECVDERKLLVIPIFYKVRARDVSGRTGDFGKKFWALAQKSRGCQIKEWMEALECISNKMGLSLGDGRSEADFIKEIVKEVERVLATFTSEDTEDHHCQTVKLLKGLVVGCLAHQELPLVLVFTQVYYYVKFSIFFIEEIFSSCFRKGFVLKPCKEDLQINSISIPGIDLENFKNMMQQAMYELNQMLLQSLGNIDPHRDVAFENQPQDQPDSPIALPEERRVALEATKFCGHAAYWWNQTKTTRARIGKVLIHFWEKLKKKFKDTYDRTVRI
For B1, the binding result is on record as “binds”.
